Assay results: US6222035A, “[1,2,4] triazolo [1,5-C] pyrimidine derivatives” (Kyowa Hakko Kogyo Co., Ltd., priority 1997, dated 2001)
Where a name gives a salt, the structure may show the parent alone. At least one structure is not confirmed: it was looked up by name or label, or the drawing left a doubt. Some entries repeat one wording, which the source may state once for all of them.

Columns and labels:
[1] = test system: immobility time in forced swimming of mice; test: Forced Swimming Method (measurement of immobility time); format: in vivo, mouse (male ddY); conditions: 10 mg/kg oral, Steel-test vs solvent control
Method: Forced Swimming Method (measurement of immobility time)
Ten animals per group of ddY male mice (21 to 26 g in body weight, Japan SLC) were used as the experimental animal. During the preliminary feeding period, they were allowed to have feed and water freely in an animal room of a room temperature of 23±1° C. and a humidity of 55±5%. […] The drugs to be tested were suspended in a 0.3% Tween 80 solution and orally administered one hour before the test. In the negative control group, 10 ml/kg of the 0.3% Tween 80 solution alone was orally administered. Measurement of immobility time was carried out in accordance with the method of Porsolt [Arch. int Pharmacodyn., 229: 327-336 (1977)]. That is, a cylindrical transparent acrylic water tank (10 cm in diameter and 25 cm in height) was filled with 9 cm in depth of water having a temperature of 23±1° C., and mice were forced to swim for 6 minutes. When mice are put into water, they immediately start to swim trying to escape from the tank, but the motion gradually decreases 1 to 2 minutes thereafter. […] In order to reduce effects of daily rhythm, the test was carried out by using 5 of the 10 animals per group in the morning, and the remaining 5 animals in the afternoon. Further, measurement of immobility time was carried out by observing 2 animals at the same time and by not telling the observers distinctions about the solvent-administered group and doses of administered test drugs. Statistical analysis of the results was carried out by a multiple comparison test of the solvent-administered control group and each of the test drug-administered groups by Steel-test.

[2] = test system: learned helplessness model in rats; test: Activity in Learned Helplessness (LH) Model; format: in vivo, rat (male SD); conditions: in words
Method: Activity in Learned Helplessness (LH) Model
As experimental animals, 10 to 15 animals per group of SD male rats (220 to 320 g in body weight, 7 week age, Charles River Japan, Atsugi) were used. During the preliminary feeding period, they were allowed to have feed (CRF-1, Oriental Yeast, Tokyo) and water (tap water) freely in an animal room at a room temperature of 22 to 24° C. and a humidity of 50 to 60%. The test compound was orally administered in a dose of 2 ml/kg and 1 hour before FR 1 (fixed ratio schedule 1: repetition of fixed trial conditions) on the second day of the test.
2) Preparation of Learned Helplessness Model
A shuttle box apparatus (TK-401S; manufactured by UNICOM, Chiba) was used as the learning test apparatus. On the first day, a partition wall was set at the center of the shuttle box to arrange two rooms, and one rat was put into each of the rooms. Each of the two rooms (22×20×26 cm) has a stainless steel floor grid to which an electric shock (1.3 mA, scramble stimulus) can be applied. […]
On the second day, a shuttle box test was carried out by slightly modifying the method of Maier et al. [J. Comp. […] The escape reaction was judged success when both of the two escape times in FR 2 were less than 10 seconds, and the escape response was calculated by the following formula: "the number of trials of successful escape/15×100=escape response (%)" Further, migration in the box other than the escape reaction observed during a period between trials (resting time) was used as an index of psychomotor stimulant action by calculating "total number of migration in the box/15×100=intertrial response (%)"
The results were statistically analyzed by treating the difference between normal control and IES-loaded control with Student-t and carrying out a multiple comparison test for the escape responses and intertrial responses between the IES-loaded control group and the test drug-administered group by the Steel method, and the results were treated as significant when the level of significance was less than 5%. […]

SMILES | Immobility time-shortening activity [1] | also measured
Nc1nc(N2CCN(C(=O)c3ccccc3)CC2)cc2nc(-c3ccco3)nn12 [Compound 45, 5-Amino-7-(4-benzoylpiperazinyl)-2-(2-furyl)[1,2,4]triazolo[1,5-c]pyrimidine] | Significant immobility time-shortening activity was observed | Difference in intertrial responses vs electric shock loaded control group [2]: no difference; Effect on reduced escape response induced by the IES loading [2]: significantly reverse a reduced escape response; Psychomotor stimulant activity [2]: weak
Nc1nc(N2CCN(CCO)CC2)cc2nc(-c3ccco3)nn12 [Compound 62, 5-Amino-2-(2-furyl)-7-[4-(2-hydroxyethyl)piperazinyl][1,2,4]triazolo[1,5-c]pyrimidine] | Significant immobility time-shortening activity was observed | –
Nc1nc(N2CCN(Cc3ccc4c(c3)OCO4)CC2)cc2nc(-c3ccco3)nn12 [Compound 66, 5-Amino-2-(2-furyl)-7-(4-piperonylpiperazinyl)[1,2,4]triazolo[1,5-c]pyrimidine] | Significant immobility time-shortening activity was observed | –
COc1ccc(CN2CCN(c3cc4nc(-c5ccco5)nn4c(N)n3)CC2)cc1OC [Compound 67, 5-Amino-7-[4-(3,4-dimethoxybenzyl)piperazinyl]-2-(2-furyl)[1,2,4]triazolo[1,5-c]pyrimidine] | Significant immobility time-shortening activity was observed | –
Nc1nc(N2CCN(Cc3cccc(Cl)c3)CC2)cc2nc(-c3ccco3)nn12 [Compound 69, 5-Amino-7-[4-(3-chlorobenzyl)piperazinyl]-2-(2-furyl)[1,2,4]triazolo[1,5-c]pyrimidine] | Significant immobility time-shortening activity was observed | –
Nc1nc(N2CCN(Cc3cccnc3)CC2)cc2nc(-c3ccco3)nn12 [Compound 70, 5-Amino-2-(2-furyl)-7-[4-(3-picolyl)piperazinyl][1,2,4]triazolo[1,5-c]pyrimidine] | Significant immobility time-shortening activity was observed | –
Nc1nc(N2CCN(Cc3ccncc3)CC2)cc2nc(-c3ccco3)nn12 [Compound 71, 5-Amino-2-(2-furyl)-7-[4-(4-picolyl)piperazinyl][1,2,4]triazolo[1,5-c]pyrimidine] | Significant immobility time-shortening activity was observed | –
Nc1nc(N2CCN(CC3CCCCC3)CC2)cc2nc(-c3ccco3)nn12 [Compound 72, 5-Amino-7-(4-cyclohexylmethylpiperazinyl)-2-(2-furyl)[1,2,4]triazolo[1,5-c]pyrimidine] | Significant immobility time-shortening activity was observed | –
COCCN1CCN(c2cc3nc(-c4ccco4)nn3c(N)n2)CC1 [Compound 74, 5-Amino-7-[4-(2-methoxyethyl)piperazinyl]-2-(2-furyl)[1,2,4]triazolo[1,5-c]pyrimidine] | Significant immobility time-shortening activity was observed | –
Nc1nc(N2CCN(Cc3ccccc3F)CC2)cc2nc(-c3ccco3)nn12 [Compound 78, 5-Amino-7-(4-(2-fluorobenzyl)piperazinyl)-2-(2-furyl)[1,2,4]triazolo[1,5-c]pyrimidine] | Significant immobility time-shortening activity was observed | –
Nc1nc(N2CCN(Cc3c(Cl)cccc3Cl)CC2)cc2nc(-c3ccco3)nn12 [Compound 80, 5-Amino-7-(4-(2,6-dichlorobenzyl)piperazinyl)-2-(2-furyl)[1,2,4]triazolo[1,5-c]pyrimidine hydrochloride] | Significant immobility time-shortening activity was observed | –
Nc1nc(N2CCN(Cc3ccccn3)CC2)cc2nc(-c3ccco3)nn12 [Compound 84, 5-Amino-2-(2-furyl)-7-(4-(2-picolyl)piperazinyl)[1,2,4]triazolo[1,5-c]pyrimidine] | Significant immobility time-shortening activity was observed | –
Nc1nc(N2CCN(CCOc3ccccc3)CC2)cc2nc(-c3ccco3)nn12 [Compound 90, 5-Amino-2-(2-furyl)-7-(4-(2-phenoxyethyl)piperazinyl)[1,2,4]triazolo[1,5-c]pyrimidine hydrochloride] | Significant immobility time-shortening activity was observed | –
CCOCCN1CCN(c2cc3nc(-c4ccco4)nn3c(N)n2)CC1 [Compound 96, 5-Amino-7-(4-(2-ethoxyethyl)piperazinyl)-2-(2-furyl)[1,2,4]triazolo[1,5-c]pyrimidine] | Significant immobility time-shortening activity was observed | –
COCCCN1CCN(c2cc3nc(-c4ccco4)nn3c(N)n2)CC1 [Compound 99, 5-Amino-2(2-furyl)-7-(4-(3-methoxypropyl)piperazinyl)[1,2,4]triazolo[1,5-c]pyrimidine] | Significant immobility time-shortening activity was observed | –
CCOCCCN1CCN(c2cc3nc(-c4ccco4)nn3c(N)n2)CC1 [Compound 100, 5-Amino-7-(4-(3-ethoxypropyl)piperazinyl)-2-(2-furyl)[1,2,4]triazolo[1,5-c]pyrimidine] | Significant immobility time-shortening activity was observed | –
Nc1nc(N2CCN(CCOCCO)CC2)cc2nc(-c3ccco3)nn12 [Compound 103, 5-Amino-2-(2-furyl)-7-(4-(2-(2-hydroxyethoxy)ethyl)piperazinyl)[1,2,4]triazolo[1,5-c]pyrimidine] | Significant immobility time-shortening activity was observed | –
COCCOCCN1CCN(c2cc3nc(-c4ccco4)nn3c(N)n2)CC1 [Compound 104, 5-Amino-2-(2-furyl)-7-(4-(2-(2-methoxyethoxy)ethyl)piperazinyl)[1,2,4]triazolo[1,5-c]pyrimidine] | Significant immobility time-shortening activity was observed | –
C[C@@H]1CN(c2cc3nc(-c4ccco4)nn3c(N)n2)C[C@H](C)N1C [Compound 115, 5-Amino-7-(cis-3,5-dimethyl-4-methylpiperazinyl)-2-(2-furyl)[1,2,4]triazolo[1,5-c]pyrimidine hydrochloride] | Significant immobility time-shortening activity was observed | –
Nc1nc(N2CCN(CCF)CC2)cc2nc(-c3ccco3)nn12 [Compound 126, 5-Amino-7-(4-(2-fluoroethyl)piperazinyl)-2-(2-furyl)[1,2,4]triazolo[1,5-c]pyrimidine] | Significant immobility time-shortening activity was observed | –
Nc1nc(N2CCN(CCCF)CC2)cc2nc(-c3ccco3)nn12 [Compound 127, 5-Amino-7-(4-(3-fluoropropyl)piperazinyl)-2-(2-furyl)[1,2,4]triazolo[1,5-c]pyrimidine] | Significant immobility time-shortening activity was observed | –
